Assay results published in article PMC12040169 (PLOS Biology, 2025).
The list shows a part of the results.

Test system: T1, CTL2-GFP (C. trachomatis L2/434/Bu, GFP-expressing)
T1 construct: L2/434/Bu, GFP-expressing
Design: species or system HeLa; Intracellular C. trachomatis growth in HeLa cells, bulk GFP fluorescence relative to DMSO
Details: bulk GFP, single well; 28.5 h, 10 µM; inhibitor

Structure (SMILES)	% of control remaining [%]
Cc1ncccc1C(=O)N1CCN(Cc2ccccc2)CC1 [CBK200171]	173.661
O=C(CSc1nnc(-c2ccco2)o1)N1CCN(CC(=O)N2CCCC2)CC1 [CBK295136]	130.076
COc1ccc2c(CN(C)Cc3cc(C)[nH]n3)cn(C)c2c1 [CBK281734]	132.728
CCOc1ccccc1NC(=O)CNS(=O)(=O)c1ccccc1 [CBK265860]	179.778
O=C(O)CCC(C(=O)O)N1C(=O)c2c(Cl)c(Cl)c(Cl)c(Cl)c2C1=O (centres unmarked) [CBK264308]	137.6
Cc1ccc(C(=O)Nc2cccc(-c3cn4cccnc4n3)c2)cc1 [CBK287503]	144.467
CC(O)(CC(=O)O)C12CC3CC(CC(C3)C1)C2 (centres unmarked) [CBK261245]	91.9047
CN1CCC(N2CCN(C(=O)c3cncc(-c4[nH]nnc4-c4ccccc4)c3)CC2)CC1 [CBK160327]	114.594
CN(C)C(=O)c1ccc(Cn2nc(C(=O)NCCOc3ccccc3)c3ccccc32)cc1 [CBK047700]	100
COc1ccc(CCNC(=O)c2cccc(-c3ccc(OC4CCNCC4)cc3)n2)cc1OC [CBK126548T]	120.955
O=C(c1ccccc1)c1ccc(NC(=O)c2ccccc2F)c(NC(=O)c2ccccc2F)c1 [CBK265183]	124.757
CC(C)[C@H]1CN(Cc2ccccc2F)CCN1C(=O)Cn1ncc2ccccc2c1=O [CBK286172]	127.484
CC(C)CN(Cc1ccc2c(c1)OCO2)C(=O)NCc1ccc(Cl)c(Cl)c1 [CBK159069]	101.449
CC(C)(C)S(=O)(=O)Nc1nccnc1-c1ccc(OCc2ccccc2)cc1 [CBK050886]	130.421
CC(C)Sc1nnc(N2C(N)=C(C#N)C(c3cccs3)C3=C2CCCC3=O)s1 (centres unmarked) [CBK293989]	114.663
CC(=O)Nc1cccc(CN2CCCC2CN2CCCC2CO)c1 (centres unmarked) [CBK305163]	72.3582
Cc1ccccc1-c1csc2c(=O)[nH]c(N3CCC4(CC3)OCCO4)nc12 [CBK291141]	127.948
COc1cccc(CNn2cnnc2S)c1OCc1ccccc1 [CBK265781]	174.793
O=C(Cc1ccc(Cl)cc1)NC(=S)Nc1ccccc1O [CBK263905]	137.842
Cc1nc2ccc(C(=O)N3CCC(O)(c4ccccc4C)CC3)cc2[nH]1 [CBK283300]	132.242
CN(C)C(=O)CN1CCCC2(CCN(C(=O)c3cc(F)c(F)cc3F)C2)C1 (centres unmarked) [CBK132024]	100
Cc1cc(C(=O)Nc2cc(F)c(N3CCCC3)c(F)c2)c(C)n1C1CC1 [CBK306226]	101.207
Cc1ccc(/C=N/NC(=O)C(C)Oc2ccccc2Br)o1 (centres unmarked) [CBK262226]	80.1244
CSCCN1CCC(Oc2nccnc2OCCN2C(=O)CCC2=O)CC1 [CBK084351]	98.4442
CC(=O)N1CCc2cc(C(=O)N[C@@H](Cc3ccccc3)C(=O)O)ccc21 [CBK298303]	154.002

Grouped by structure: the compounds so far with a COOH group
Structure (SMILES)	% of control remaining [%]
O=C(O)CCC(C(=O)O)N1C(=O)c2c(Cl)c(Cl)c(Cl)c(Cl)c2C1=O (centres unmarked) [CBK264308]	137.6
CC(O)(CC(=O)O)C12CC3CC(CC(C3)C1)C2 (centres unmarked) [CBK261245]	91.9047
CC(=O)N1CCc2cc(C(=O)N[C@@H](Cc3ccccc3)C(=O)O)ccc21 [CBK298303]	154.002

(list continues)

Structure (SMILES)	% of control remaining [%]
O=c1nc(O)c(I)cn1C1OC(CO)C(O)C1O (centres unmarked) [CBK015625]	152.795
CNC(=O)CN(CCO)Cc1cc(Br)ccc1F [CBK304941]	110.868
Cn1nnnc1SCCNC(=O)Nc1cccc(N2CCOC2=O)c1 [CBK306593]	141.932
O=C(OCC=C=CSc1ccc([N+](=O)[O-])cc1)c1ccc(F)cc1 [CBK265650]	118.155
c1ccc(CN2CCN(Cc3ccccc3)C2c2cccnc2)cc1 [CBK260885]	126.52
COC(=O)CNC(c1ccccc1)c1cc(Br)ccc1N (centres unmarked) [CBK019222]	107.891
CC(C)NS(=O)(=O)c1ccc(NC(=O)Cc2cccc3ccccc23)cc1 [CBK268102]	136.078
O=C(Cn1c(=O)n(Cc2cccnc2)c(=O)c2ncccc21)NC1CCCC1 [CBK287666]	123.661
Cn1c(=O)c2cnc(-c3ccccc3Cl)nc2n(C)c1=O [CBK291219]	108.939
CC(C)(CO)CCCn1cncc1-c1cnn(-c2ccc(F)cc2)c1 [CBK281466]	80.7398
Cc1ncc([N+](=O)[O-])n1CCOC(=O)NC(N1CCOCC1)C(Cl)(Cl)Cl (centres unmarked) [CBK261299]	88.7275
CN(C(=O)C1CCC1)c1nc2c(s1)CCc1c-2cnn1C [CBK281931]	129.147
Cc1csc(Sc2nccnc2N2CCCC2)n1 [CBK093735]	112.608
O=S(=O)(Nc1cc(C(F)(F)F)ccc1N1CCOCC1)c1ccc(-c2ccccn2)s1 [CBK062557]	105.171
COc1ccc(C)cc1S(=O)(=O)N(CCO)c1cc(N2CCNCC2)c2occc2c1 [CBK067894C]	91.7205
Cc1ccc(S(=O)(=O)N(CC(=O)O)c2ccc(C)c(C)c2)cc1 [CBK263778]	130.356
COc1ccc(CCN[C@H]2CCC[C@@H]2O)cc1OC [CBK005354G]	134.619
COc1ccc([C@@H]2CCN(C(=O)Cc3ccccc3F)C[C@H]2O)cc1 [CBK283756]	126.979
CC(C)CCNCc1ccc(-c2cn(CC(=O)NCCc3ccccc3)nn2)cc1 [CBK164740]	132.09
O=C(Nc1nnc(COc2ccccc2)s1)c1cccc2ccccc12 [CBK300487]	137.159
CC1(C)Cc2c(sc(NC(=O)Cc3ccccc3)c2C(=O)O)CO1 [CBK264354]	124.106
COCCN1C(=O)C2(CC(=O)N(C)C2=O)c2ccccc21 (centres unmarked) [CBK075387]	182.921
CC(C)(C)OC(=O)NCc1ccc(CNCc2ccc(-c3ccccc3)cc2)cc1 [CBK056706]	86.5533
Cc1nc(N2CCOCC2)nc(Nc2ccc(Cl)cc2)c1[N+](=O)[O-] [CBK264685]	111.792
NCc1ccc(CN(Cc2ccc(-c3ccccc3)cc2)C(=O)Nc2ccccc2C(F)(F)F)cc1 [CBK046116C]	108.093
